Measured values as given in article PMC7667687.
Results are given in words; binding and its absence hold for the method and conditions named. Binding seen in cells or lysates may run through a third protein. Some results given as binding are weak or reduced against the parent protein; the word gives no strength.

Protein sequences, listed by entry. Tags and fused reporters are not part of them. Residues count along the entry.
UniProt Q9NZQ7, residues 19-290: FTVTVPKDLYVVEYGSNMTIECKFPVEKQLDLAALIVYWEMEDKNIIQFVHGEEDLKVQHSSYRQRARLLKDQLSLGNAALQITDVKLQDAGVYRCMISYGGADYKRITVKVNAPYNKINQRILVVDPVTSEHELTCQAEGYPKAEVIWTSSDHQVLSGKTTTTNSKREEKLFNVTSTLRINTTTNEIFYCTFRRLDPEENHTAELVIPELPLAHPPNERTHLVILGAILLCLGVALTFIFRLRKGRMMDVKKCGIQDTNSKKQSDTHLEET

Columns and labels:
[1] = target: T1, CCCTC-binding factor (CTCF) (human (endogenous in SGC-7901)) (UniProt P49711); test: co-IP; SGC-7901 whole cell lysate (RIPA buffer); IP with anti-PD-L1 antibody or anti-CTCF antibody, protein A/G PLUS-Agarose, 4°C; detected by western blot
T1 sequence: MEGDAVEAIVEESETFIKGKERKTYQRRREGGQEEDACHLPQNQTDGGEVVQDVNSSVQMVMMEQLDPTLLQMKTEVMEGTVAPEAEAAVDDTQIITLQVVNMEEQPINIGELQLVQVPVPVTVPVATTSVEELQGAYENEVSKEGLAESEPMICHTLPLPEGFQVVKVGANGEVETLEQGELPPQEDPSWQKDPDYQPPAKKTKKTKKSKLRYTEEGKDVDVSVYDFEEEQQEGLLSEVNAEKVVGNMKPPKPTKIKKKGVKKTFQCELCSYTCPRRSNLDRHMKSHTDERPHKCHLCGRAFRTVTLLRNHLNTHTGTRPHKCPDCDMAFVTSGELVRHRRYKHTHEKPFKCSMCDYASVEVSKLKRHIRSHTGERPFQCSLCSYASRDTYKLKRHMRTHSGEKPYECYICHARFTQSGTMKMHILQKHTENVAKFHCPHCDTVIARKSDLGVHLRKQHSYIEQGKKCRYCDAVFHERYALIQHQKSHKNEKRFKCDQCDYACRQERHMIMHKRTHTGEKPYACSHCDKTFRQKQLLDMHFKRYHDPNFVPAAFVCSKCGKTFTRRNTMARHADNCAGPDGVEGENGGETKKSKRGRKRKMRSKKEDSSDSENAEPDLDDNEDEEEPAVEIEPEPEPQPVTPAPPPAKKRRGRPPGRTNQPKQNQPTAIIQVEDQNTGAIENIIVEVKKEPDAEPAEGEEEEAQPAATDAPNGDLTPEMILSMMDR

[2] = target: programmed cell death ligand 1 (PD-L1) (human (endogenous in SGC-7901)) (UniProt Q9NZQ7); test: as above

Q: With “programmed cell death ligand 1 (PD-L1) (from UniProt Q9NZQ7 19-290)” as the molecule, how does the binding [1] read?
A: The binding was “binds”.

B1: CCCTC-binding factor (CTCF) (protein, UniProt P49711 1-727)
chain: T1 sequence
Q: How did the binding [2] turn out when B1 was run?
A: The binding was “binds”.
